The text below walks through data of the supplement of paper PMC12819154, “High-throughput peptide-centric local stability assay extends protein–ligand identification to membrane proteins, tissues and bacteria” (Nature Structural & Molecular Biology, 2025).

Amino acid sequences for entries named in this document (tags omitted). A change or cut given only in a name is not applied to a line headed by its entry.
UniProt P00350: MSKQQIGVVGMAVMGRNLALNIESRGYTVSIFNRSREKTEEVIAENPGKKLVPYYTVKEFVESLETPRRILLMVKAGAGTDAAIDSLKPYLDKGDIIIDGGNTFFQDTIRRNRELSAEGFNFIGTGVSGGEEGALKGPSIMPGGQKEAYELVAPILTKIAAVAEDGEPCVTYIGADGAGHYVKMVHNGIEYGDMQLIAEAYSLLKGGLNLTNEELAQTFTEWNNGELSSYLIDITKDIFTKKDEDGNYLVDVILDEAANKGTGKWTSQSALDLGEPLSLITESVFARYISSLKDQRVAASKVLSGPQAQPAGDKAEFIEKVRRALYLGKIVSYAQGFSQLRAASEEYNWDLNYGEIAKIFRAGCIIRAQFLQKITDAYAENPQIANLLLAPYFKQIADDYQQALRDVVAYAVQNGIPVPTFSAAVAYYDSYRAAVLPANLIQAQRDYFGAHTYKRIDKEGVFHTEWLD
UniProt P02921: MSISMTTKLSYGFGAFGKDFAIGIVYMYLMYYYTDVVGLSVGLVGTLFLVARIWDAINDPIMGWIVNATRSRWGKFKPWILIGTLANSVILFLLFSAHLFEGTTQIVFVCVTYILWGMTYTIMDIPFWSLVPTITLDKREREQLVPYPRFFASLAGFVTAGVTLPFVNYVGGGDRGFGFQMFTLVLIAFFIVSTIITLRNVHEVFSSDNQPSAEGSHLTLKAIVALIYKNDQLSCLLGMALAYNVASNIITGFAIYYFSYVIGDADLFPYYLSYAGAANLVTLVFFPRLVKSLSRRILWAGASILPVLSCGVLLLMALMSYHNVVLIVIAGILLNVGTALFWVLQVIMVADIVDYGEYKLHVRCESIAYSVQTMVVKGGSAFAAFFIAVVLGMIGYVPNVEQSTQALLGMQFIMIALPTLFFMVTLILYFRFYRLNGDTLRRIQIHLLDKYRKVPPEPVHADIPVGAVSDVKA
UniProt P02925: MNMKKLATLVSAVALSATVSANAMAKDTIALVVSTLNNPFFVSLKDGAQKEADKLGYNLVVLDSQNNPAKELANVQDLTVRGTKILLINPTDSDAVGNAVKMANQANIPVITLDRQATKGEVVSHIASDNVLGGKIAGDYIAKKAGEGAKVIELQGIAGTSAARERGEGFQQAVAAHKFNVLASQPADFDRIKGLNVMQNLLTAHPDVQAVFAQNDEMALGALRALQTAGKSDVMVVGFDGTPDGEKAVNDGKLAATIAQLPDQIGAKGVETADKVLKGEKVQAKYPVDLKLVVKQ
UniProt P00760: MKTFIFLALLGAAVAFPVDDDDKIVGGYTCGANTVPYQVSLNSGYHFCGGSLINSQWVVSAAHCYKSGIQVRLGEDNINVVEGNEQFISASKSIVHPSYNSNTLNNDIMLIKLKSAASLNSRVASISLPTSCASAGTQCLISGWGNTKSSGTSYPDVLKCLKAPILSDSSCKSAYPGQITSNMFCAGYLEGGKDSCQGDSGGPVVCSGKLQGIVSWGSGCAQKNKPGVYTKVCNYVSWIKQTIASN
UniProt P08395: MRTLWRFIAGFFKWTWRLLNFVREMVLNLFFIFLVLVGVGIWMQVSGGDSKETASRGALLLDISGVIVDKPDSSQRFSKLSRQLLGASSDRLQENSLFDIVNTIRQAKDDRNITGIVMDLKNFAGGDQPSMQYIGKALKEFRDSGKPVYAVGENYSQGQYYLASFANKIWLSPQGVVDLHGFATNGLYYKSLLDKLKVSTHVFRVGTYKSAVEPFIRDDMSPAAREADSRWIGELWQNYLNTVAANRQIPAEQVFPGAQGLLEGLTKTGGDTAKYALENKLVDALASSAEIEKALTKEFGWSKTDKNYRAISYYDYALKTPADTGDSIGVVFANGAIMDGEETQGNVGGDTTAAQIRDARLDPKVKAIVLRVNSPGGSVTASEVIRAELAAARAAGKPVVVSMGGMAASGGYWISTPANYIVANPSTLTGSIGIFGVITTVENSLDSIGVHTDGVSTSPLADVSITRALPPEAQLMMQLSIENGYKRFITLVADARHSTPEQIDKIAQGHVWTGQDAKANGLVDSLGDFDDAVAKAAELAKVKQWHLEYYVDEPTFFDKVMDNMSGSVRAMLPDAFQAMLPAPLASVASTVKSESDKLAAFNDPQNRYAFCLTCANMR
UniProt P07024: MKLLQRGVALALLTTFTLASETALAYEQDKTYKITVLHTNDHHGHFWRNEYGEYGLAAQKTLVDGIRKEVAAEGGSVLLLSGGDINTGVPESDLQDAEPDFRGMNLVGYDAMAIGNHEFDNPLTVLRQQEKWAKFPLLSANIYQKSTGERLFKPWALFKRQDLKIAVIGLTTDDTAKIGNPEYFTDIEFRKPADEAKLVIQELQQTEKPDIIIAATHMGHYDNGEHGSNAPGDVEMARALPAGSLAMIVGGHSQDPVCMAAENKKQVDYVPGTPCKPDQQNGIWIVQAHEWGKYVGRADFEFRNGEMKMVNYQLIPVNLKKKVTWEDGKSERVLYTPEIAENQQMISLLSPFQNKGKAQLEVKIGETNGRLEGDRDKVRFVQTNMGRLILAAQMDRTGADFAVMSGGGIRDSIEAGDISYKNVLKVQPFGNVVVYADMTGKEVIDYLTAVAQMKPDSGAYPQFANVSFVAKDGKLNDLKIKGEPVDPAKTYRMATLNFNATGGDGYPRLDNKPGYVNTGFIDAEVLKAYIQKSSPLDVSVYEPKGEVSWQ
UniProt P04425: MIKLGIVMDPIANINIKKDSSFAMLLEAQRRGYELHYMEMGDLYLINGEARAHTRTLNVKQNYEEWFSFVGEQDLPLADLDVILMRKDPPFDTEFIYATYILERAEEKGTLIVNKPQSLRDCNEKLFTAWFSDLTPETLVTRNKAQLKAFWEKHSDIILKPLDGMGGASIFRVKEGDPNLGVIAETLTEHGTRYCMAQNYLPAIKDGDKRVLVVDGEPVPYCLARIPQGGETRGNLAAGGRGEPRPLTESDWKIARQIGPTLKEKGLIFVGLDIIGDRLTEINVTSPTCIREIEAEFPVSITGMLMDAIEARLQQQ
UniProt P03023, whole entry: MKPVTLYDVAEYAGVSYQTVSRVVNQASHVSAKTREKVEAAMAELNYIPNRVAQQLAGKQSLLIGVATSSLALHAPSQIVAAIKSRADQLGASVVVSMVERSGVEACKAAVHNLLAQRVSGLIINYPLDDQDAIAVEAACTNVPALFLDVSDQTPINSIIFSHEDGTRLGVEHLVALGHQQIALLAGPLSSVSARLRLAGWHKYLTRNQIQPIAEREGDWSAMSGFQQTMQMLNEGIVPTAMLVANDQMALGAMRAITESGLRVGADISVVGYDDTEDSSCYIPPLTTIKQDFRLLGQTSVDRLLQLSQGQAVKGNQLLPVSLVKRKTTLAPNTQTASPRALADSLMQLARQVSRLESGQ
UniProt P09148: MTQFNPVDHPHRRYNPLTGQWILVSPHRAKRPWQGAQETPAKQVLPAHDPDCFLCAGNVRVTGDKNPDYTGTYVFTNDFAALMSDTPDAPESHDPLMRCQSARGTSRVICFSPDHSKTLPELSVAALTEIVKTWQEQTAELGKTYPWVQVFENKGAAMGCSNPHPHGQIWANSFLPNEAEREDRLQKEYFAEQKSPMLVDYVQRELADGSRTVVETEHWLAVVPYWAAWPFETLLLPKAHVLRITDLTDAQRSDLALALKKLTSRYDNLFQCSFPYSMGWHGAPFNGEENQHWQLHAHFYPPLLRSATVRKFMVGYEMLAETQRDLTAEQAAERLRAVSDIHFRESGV
UniProt P08997: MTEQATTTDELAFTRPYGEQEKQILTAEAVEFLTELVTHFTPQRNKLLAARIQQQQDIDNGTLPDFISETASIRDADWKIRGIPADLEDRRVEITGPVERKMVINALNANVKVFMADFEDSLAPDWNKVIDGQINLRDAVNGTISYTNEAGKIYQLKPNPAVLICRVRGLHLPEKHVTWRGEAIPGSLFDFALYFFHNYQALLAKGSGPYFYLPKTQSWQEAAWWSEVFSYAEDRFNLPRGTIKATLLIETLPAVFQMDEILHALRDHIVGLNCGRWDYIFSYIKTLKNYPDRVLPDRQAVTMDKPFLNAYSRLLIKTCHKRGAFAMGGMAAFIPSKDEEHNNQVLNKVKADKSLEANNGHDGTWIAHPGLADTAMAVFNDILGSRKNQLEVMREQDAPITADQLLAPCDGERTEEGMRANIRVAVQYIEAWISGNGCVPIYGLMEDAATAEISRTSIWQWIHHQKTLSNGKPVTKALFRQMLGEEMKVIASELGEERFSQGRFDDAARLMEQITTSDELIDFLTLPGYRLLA
UniProt P03813: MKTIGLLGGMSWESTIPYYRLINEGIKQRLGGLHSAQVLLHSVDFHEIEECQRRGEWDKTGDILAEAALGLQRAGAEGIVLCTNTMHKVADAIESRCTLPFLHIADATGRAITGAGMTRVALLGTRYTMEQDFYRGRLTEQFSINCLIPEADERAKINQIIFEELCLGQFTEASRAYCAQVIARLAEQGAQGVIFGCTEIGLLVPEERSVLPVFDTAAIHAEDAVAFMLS
UniProt P07109: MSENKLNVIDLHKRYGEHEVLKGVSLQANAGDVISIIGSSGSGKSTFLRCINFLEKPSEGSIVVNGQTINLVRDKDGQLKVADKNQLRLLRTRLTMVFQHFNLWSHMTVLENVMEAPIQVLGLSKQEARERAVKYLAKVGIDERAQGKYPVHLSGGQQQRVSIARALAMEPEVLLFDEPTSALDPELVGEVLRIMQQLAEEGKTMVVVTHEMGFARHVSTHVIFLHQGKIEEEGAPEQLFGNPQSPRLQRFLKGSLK
UniProt P02942: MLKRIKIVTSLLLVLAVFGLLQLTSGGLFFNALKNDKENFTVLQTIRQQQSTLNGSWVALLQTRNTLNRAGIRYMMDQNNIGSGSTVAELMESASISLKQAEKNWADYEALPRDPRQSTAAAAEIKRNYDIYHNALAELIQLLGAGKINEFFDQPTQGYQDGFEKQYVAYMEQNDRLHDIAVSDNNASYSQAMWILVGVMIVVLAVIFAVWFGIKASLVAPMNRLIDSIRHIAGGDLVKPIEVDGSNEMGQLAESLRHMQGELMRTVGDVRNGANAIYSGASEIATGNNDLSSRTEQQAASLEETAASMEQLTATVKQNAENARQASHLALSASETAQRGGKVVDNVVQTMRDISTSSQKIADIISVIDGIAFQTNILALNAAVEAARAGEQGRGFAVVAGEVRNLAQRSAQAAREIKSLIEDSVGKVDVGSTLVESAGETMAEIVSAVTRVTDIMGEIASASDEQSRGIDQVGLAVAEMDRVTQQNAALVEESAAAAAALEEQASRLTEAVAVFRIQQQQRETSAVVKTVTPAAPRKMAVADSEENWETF
UniProt P09546: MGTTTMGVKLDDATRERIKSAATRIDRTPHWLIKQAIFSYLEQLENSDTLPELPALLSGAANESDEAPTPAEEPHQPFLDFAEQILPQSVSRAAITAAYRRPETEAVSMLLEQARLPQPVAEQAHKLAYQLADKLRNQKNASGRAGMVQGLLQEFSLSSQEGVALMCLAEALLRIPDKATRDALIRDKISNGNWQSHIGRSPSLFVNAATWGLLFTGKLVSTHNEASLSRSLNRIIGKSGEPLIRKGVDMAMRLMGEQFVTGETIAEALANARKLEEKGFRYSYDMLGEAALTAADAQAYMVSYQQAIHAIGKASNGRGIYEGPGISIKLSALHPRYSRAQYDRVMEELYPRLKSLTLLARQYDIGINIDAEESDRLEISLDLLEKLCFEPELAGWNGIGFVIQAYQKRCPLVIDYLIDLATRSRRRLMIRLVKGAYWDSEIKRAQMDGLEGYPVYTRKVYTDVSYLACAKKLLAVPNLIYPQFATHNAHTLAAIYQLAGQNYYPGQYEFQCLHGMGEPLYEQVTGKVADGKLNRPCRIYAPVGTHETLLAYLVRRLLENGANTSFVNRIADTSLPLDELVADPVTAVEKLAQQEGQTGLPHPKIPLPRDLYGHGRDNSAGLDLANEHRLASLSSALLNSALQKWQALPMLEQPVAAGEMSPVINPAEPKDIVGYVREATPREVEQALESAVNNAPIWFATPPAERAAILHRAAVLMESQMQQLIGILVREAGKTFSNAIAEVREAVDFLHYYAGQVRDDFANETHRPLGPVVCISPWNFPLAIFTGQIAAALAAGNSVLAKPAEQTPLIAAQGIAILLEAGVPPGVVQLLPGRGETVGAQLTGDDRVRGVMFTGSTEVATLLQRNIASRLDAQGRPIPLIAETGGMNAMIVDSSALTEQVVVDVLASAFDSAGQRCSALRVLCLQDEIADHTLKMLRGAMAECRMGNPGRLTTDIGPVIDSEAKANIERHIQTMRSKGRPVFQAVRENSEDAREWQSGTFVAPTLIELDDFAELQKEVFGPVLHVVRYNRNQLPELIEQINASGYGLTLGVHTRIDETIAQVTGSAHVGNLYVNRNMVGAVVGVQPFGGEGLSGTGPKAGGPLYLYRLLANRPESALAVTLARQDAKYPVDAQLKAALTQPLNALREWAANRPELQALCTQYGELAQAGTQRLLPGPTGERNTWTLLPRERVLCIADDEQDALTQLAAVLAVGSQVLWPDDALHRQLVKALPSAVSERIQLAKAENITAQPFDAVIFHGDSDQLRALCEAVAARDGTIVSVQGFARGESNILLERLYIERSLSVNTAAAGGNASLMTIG

This is one part of the list. Small differences around the control level are noise.

Compound in this assay: CC1(C)S[C@@H]2[C@H](NC(=O)[C@H](N)c3ccccc3)C(=O)N2[C@H]1C(=O)O [ampicillin]
Kind of assay: log2 fold change of tryptic peptide abundance, ligand vs vehicle (limited proteolysis) (log2 ratio); higher = more trypsin-susceptible (destabilized). As to conditions: ligand concentration: 10 uM; sample: E. coli crude lysate.
For “UniProt P00350 (peptide sequence: EKTEEVIAENPGKK, peptide start residue: 37)”, the log2 fold change worked out at 0.256.

In the case of “UniProt P05055 (peptide sequence: RGVLAVMPDMDKFPYTVR, peptide start residue: 409)”, the log2 fold change is -0.559. As for “UniProt P07658 (peptide sequence: TNQGTLCLK, peptide start residue: 36)”, the figure is 0.265. As for “UniProt P02921 (peptide sequence: KVPPEPVHADIPVGAVSDVKA, peptide start residue: 453)”, the figure is 0.29. “UniProt P07117 (peptide sequence: FAEADAHYHSAPPSR, peptide start residue: 484)”: the log2 fold change is -0.0131. As to “UniProt P06864 (peptide sequence: VPLMNEFGEYPHPKPR, peptide start residue: 493)”, the log2 fold change stood at 0.223.

Consider “UniProt P02925 (peptide sequence: ERGEGFQQAVAAHK, peptide start residue: 165)”, for which the log2 fold change is -0.156. As for “UniProt P08839 (peptide sequence: FIEEKTIC, peptide start residue: 568)”, the figure is -1.08. Next, “UniProt P06996 (peptide sequence: AETYTGGLK, peptide start residue: 239)”: 0.282.

Consider “UniProt P08331 (peptide sequence: VTVNDITETVR, peptide start residue: 196)”, for which the log2 fold change was determined as 0.183. Next, “UniProt P08957 (peptide sequence: LALMNCLLHDIEGNLDHGGAIR, peptide start residue: 224)”: -0.302; “UniProt P00760 (peptide sequence: SSGTSYPDVLKCLKAPILSDSSCK, peptide start residue: 149)”: -2.67.

In the case of “UniProt P08373 (peptide sequence: DSIFKHEYQDR, peptide start residue: 160)”, the log2 fold change is -0.513. Next, “UniProt P05804 (peptide sequence: WTGMNFGEKPQQGGK, peptide start residue: 588)”: 0.258; “UniProt P08395 (peptide sequence: NITGIVMDLK, peptide start residue: 112)”: 0.195; “UniProt P04693 (peptide sequence: VGADFLKR, peptide start residue: 110)”: -0.578.

On to “UniProt P05719 (peptide sequence: EQAINYLK, peptide start residue: 30)”, for which the log2 fold change is -0.604. Next, “UniProt P07024 (peptide sequence: DSIEAGDISYK, peptide start residue: 411)”: 0.629; “UniProt P04425 (peptide sequence: GEPRPLTESDWK, peptide start residue: 242)”: -0.207.

For “UniProt P03023 (peptide sequence: ALADSLMQLAR, peptide start residue: 341)”, the log2 fold change was -0.532.

For the target “UniProt P08192 (peptide sequence: AEDTVLVCGSFHTVAHVMEVIDAR, peptide start residue: 394)”, the log2 fold change was 0.498. Next, “UniProt P09148 (peptide sequence: RYNPLTGQWILVSPHR, peptide start residue: 13)”: -0.441; “UniProt P09030 (peptide sequence: DHPIKFPAK, peptide start residue: 117)”: -0.233; “UniProt P00887 (peptide sequence: VNHGLELARK, peptide start residue: 118)”: 0.709. As for “UniProt P08997 (peptide sequence: GSGPYFYLPK, peptide start residue: 206)”, the figure is -0.321; as for “UniProt P00363 (peptide sequence: NKYMELGPR, peptide start residue: 280)”, -0.231. Next, “UniProt P03813 (peptide sequence: YTMEQDFYR, peptide start residue: 127)”: -0.243; “UniProt P07109 (peptide sequence: LNVIDLHK, peptide start residue: 6)”: -0.407. Consider “UniProt P00452 (peptide sequence: HMDYGVQINKLMYTR, peptide start residue: 332)”, for which the log2 fold change is -0.215.

As to “UniProt P09163 (peptide sequence: SVDATHDFLSAEYR, peptide start residue: 23)”, the log2 fold change came out at 0.231. “UniProt P02942 (peptide sequence: QASHLALSASETAQR, peptide start residue: 325)”: the log2 fold change was 0.28.

On to “UniProt P07026 (peptide sequence: ALGFLSFSR, peptide start residue: 129)”, for which the log2 fold change was -0.0423.

As to “UniProt P00509 (peptide sequence: DFSFIIK, peptide start residue: 337)”, the log2 fold change was -0.489.

With “UniProt P09546 (peptide sequence: IYAPVGTHETLLAYLVRR, peptide start residue: 539)”, the log2 fold change was found to be 0.323. Next, “UniProt P08400 (peptide sequence: VDVPMMLR, peptide start residue: 278)”: -0.216.
